Binding data for one substance are collected here from PMC6073727.

This experiment addresses T1, JAZ9 fused to the hemagglutinin (HA) tag (Arabidopsis) (UniProt Q8W4J8).
T1 sequence: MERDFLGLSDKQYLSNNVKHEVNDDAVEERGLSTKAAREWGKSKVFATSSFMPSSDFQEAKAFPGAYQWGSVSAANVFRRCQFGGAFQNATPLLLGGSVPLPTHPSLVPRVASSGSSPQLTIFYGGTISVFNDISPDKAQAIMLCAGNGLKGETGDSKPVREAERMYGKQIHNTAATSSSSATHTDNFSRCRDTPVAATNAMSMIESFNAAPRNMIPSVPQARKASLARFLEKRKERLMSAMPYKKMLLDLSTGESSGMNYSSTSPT
The experiment in a line: co-IP; semi-in vivo: 20 µg purified His-NOG1-2 from E. coli added to 1 mg total protein of HA-JAZ9 plants (or Col-0), overnight at 4 °C, then anti-HA agarose 3 h at 4 °C; blot with anti-GTPBP4 and anti-HA; only the binder purified.

Results are given in words; binding and its absence hold for the method and conditions named. Binding seen in cells or lysates may run through a third protein. Binding calls can cover weak binding; strength is not graded here. Tags and fused reporters may be left off the sequences shown.

Take “6x-histidine (His)-tagged NOG1-2 protein (Arabidopsis)”: the binding entry is “binds”.
